# Several values for one entry are separate records, joined by “and”; a condition that tells them apart may be missing. Identical values can stand only once. The campaign covered roughly 400,000 compounds. About 5,500 (1.4%) were called active. The inconclusive results got no clear call from the source; some entries with a clear call stand among them for comparison. Calls follow the shape of the dose curve; as a rule, active = well fitted cell-killing curve with a large enough effect; inconclusive = small, poorly fitted or top-dose-only effect, or effect the other way; inactive = flat fitted curve, though single readings scatter. Potencies of inconclusive entries are doubtful fits and often do not repeat.
# Experiment: qHTS assay for MDR1-selective chemotherapeutics: Primary screen using the parental adenocarcinoma cell KB-3-1; also: nearly all actives have a fitted effect of over 60% in size
# Settings: KB-3-1 viability, CellTiter-Glo ATP luminescence, 72 h; activity change, negative = cytotoxic: at 46.1 µM (top of the series)
# Procedure, shortened: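 Cells are dispensed, compounds pinned in, plates held at 37 °C for 72 h, then CellTiter-Glo is added and luminescence read after 10 minutes. Cell line: parental KB-3-1 in phenol-red-free DMEM, 10% FBS.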
# % is scaled to controls: 0 for no effect and ±100 for the full control effect; potency is read from the fitted curve at half-maximal effect.
Structure (SMILES),"activity change, negative = cytotoxic",Potency
ClCCN(CCCl)c1ccc(C=Nc2ccc(/C=C/c3ccncc3)cc2)cc1,inactive: -4.01%,–
Clc1ccc(CCC(Cn2ccnc2)Sc2c(Cl)cccc2Cl)cc1 (stereo unspecified),–,"inconclusive: 29.1 µM [cytotoxic, single point]"
COC(/C(C)=C/C=C/C(C)=C/c1coc(C)n1)C(C)C1CC(O)C2(C)OC2C=CC(C)C2CC(CC(=O)O2)CC2OC2C(=O)O1 (stereo unspecified),–,"inconclusive: 0.0065 µM [cytotoxic, full curve, poor fit]"
Fc1cccc(C2NCCc3[nH]cnc32)c1 (stereo unspecified),inactive: -0.144%,–
O=C1NC(=O)C2(Cc3ccccc3N3CCCC32)C(=O)N1c1ccc(Cl)cc1 (stereo unspecified),–,"inconclusive: 32.6 µM [rising, partial curve, poor fit]"
COc1cc2c(ccc3c4cc(OC)c(OC)cc4c[n+](C)c23)cc1O,–,"inconclusive: 20.6 µM [cytotoxic, partial curve, poor fit]"
Cc1cccc(C)c1-n1nnnc1C(c1ccccc1OC(F)(F)F)N1CCC(n2c(=O)[nH]c3ccccc32)CC1 (stereo unspecified),–,active: 23.1 µM
O=C(Cc1ccccc1)N1CCN(C2CCCCCC2)CC1,–,"inconclusive: 14.6 µM [rising, single point]"
COC(=O)C1=C(c2ccc(-c3ccccc3)c(F)c2)C[C@@H]2CC[C@H]1N2C(=O)NCCCOC(C)C,–,"inconclusive: 20.6 µM [cytotoxic, partial curve, poor fit]"
CCCCn1c(O)c(C(CC)=Nc2ccc(OC)cc2OC)c(=O)[nH]c1=O,–,"inconclusive: 29.1 µM [cytotoxic, single point]"
Oc1ccc2c3c1O[C@H]1c4oc5ccccc5c4C[C@@]4(O)[C@@H](C2)N(CC2CC2)CC[C@]314,inactive: -0.02%,–
COC(=O)C1=C(c2ccccc2OCc2ccccc2)C[C@@H]2CC[C@H]1N2C(=O)NCCc1ccc(F)cc1,–,"inconclusive: 29.1 µM [cytotoxic, single point]"
C=CCN1CC[C@]23c4c5ccc(O)c4OC2C(O)CC[C@@]3(O)[C@H]1C5 (stereo partly specified),inactive: -0.23%,–
CC12CCC(=O)C=C1CCC1C2CCC2(C)C(O)CCC12 (stereo unspecified),–,"inconclusive: 6.51 µM [cytotoxic, partial curve]"
COC(=O)C1=C(c2ccc(OCc3ccccc3)cc2)C[C@@H]2CC[C@H]1N2C(=O)NC1CCN(Cc2ccccc2)CC1,–,"inconclusive: 29.1 µM [cytotoxic, single point]"
CCCCCCCCCCCCn1ccc(=N)cc1,–,active: 1.3 µM
CCOC(=O)[C@]12Cc3ccc(C)cc3[C@H]1N(C1CCCCC1)C(=O)c1ccccc12,–,active: 1.16 µM
c1ccc2c3c(ccc2c1)OCC1CONC31 (stereo unspecified),inactive: 9.43%,–
CCCNC(=O)N1[C@H]2CC[C@@H]1C(C(=O)OC)=C(c1ccc(-c3ccccc3)c(F)c1)C2,–,"inconclusive: 18.4 µM [cytotoxic, single point]"
CC1=CC(=C2C(=O)NC(=O)NC2=O)C=C(C(F)(F)F)N1Cc1ccccc1,–,"inconclusive: 16.4 µM [cytotoxic, single point]"
Nc1cccc(SC2CC(=O)N(c3ccc(Cl)cc3C(=O)c3ccccc3)C2=O)c1 (stereo unspecified),–,"inconclusive: 29.1 µM [cytotoxic, partial curve, poor fit]"
O=c1cccc2n1CC1CC2CN(Cc2c(Cl)cccc2Cl)C1 (stereo unspecified),–,"inconclusive: 32.6 µM [cytotoxic, single point]"

Structure (SMILES),"activity change, negative = cytotoxic",Potency
NC(=O)CN1CCCC1=O,–,"inconclusive: 20.6 µM [cytotoxic, partial curve]"
COC(=O)C1=C(c2cc3ccccc3s2)C[C@@H]2CC[C@H]1N2C(=O)NC1CCCCC1,–,"inconclusive: 29.1 µM [cytotoxic, single point]"
CCCCCCCSc1cc(OC)c(CCN(C)C)cc1OC,–,"inconclusive: 29.1 µM [cytotoxic, single point]"
CC(C)CC(NC(=O)CCCNC(=O)CCC(=O)OC1O[C@H]2OC3(C)CC[C@H]4[C@H](C)CCC(C1C)C24OO3)C(=O)O (stereo partly specified),–,active: 7.31 µM
CCOc1ccc(-c2cc(C)[n+](CCc3ccc(OC)c(OC)c3)c(-c3ccc(OCC)cc3)c2)cc1,–,active: 5.8 µM
CNC(=O)Oc1cccc2c1OC(C)(C)O2,–,"inconclusive: 29.1 µM [rising, single point]"
CC1C(OC(=O)CCC(=O)NC(C)(C)CO)O[C@H]2OC3(C)CC[C@H]4[C@H](C)CCC1C24OO3 (stereo partly specified),–,active: 10.3 µM
O=C(c1ccc(Cl)cc1)C1CCCN(C2CCSCC2)C1 (stereo unspecified),inactive: 1.63%,–
CCOC(=O)[C@]12Cc3cc(OC)ccc3[C@H]1N(C1CCCCC1)C(=O)c1cc(OC)ccc12,–,active: 16.4 µM
CC(C)(C)c1cc([N+](=O)[O-])cc(C(C)(C)C)c1O,–,active: 11.6 µM
CCCCCCOC(=O)c1ccccc1N,inactive: 0.251%,–
Cc1ccc(N2C(=O)NC(=O)/C(=C/C=C/c3ccco3)C2=O)cc1,–,"inconclusive: 23.1 µM [cytotoxic, single point]"
CCCCn1nnnc1C(c1cccc2ccccc12)N1CCC2(CC1)C(=O)NCN2c1ccccc1 (stereo unspecified),–,"inconclusive: 3.26 µM [cytotoxic, full curve, poor fit]"
Cc1nnc2ccc(-c3cccc(C(F)(F)F)c3)nn12,inactive: -6.48%,–
CC1CCC/C=C/C2CC(O)CC2C(O)/C=C/C(=O)O1 (stereo unspecified),–,"inconclusive: 0.0206 µM [cytotoxic, full curve, poor fit]"
CCC(=NCc1ccc2c(c1)OCO2)c1c(O)n(C)c(=O)n(C)c1=O,–,active: 14.6 µM
CCCCn1c(C)c(C(=O)OCC)c2c(CN3CCCC3)c(O)ccc21,–,"inconclusive: 11.6 µM [cytotoxic, partial curve]"
Cc1c(Oc2cc(NN3CCCCC3)c([N+](=O)[O-])cc2[N+](=O)[O-])cccc1[N+](=O)[O-],–,"inconclusive: 20.6 µM [rising, single point]"
N#CC(C#N)=Cc1ccc(C=C(C#N)C#N)cc1,–,"inconclusive: 29.1 µM [cytotoxic, single point]"
O=P1(c2ccccc2)CC=CC1,inactive: 0%,–
CCCCn1c(=O)c(C(=O)Nc2ncccc2C)c(O)c2ccccc21,–,"inconclusive: 6.51 µM [cytotoxic, full curve, poor fit]"
Cc1cccc(C)c1-n1nnnc1C(c1cc2ccccc2o1)N1CCC(n2c(=O)[nH]c3ccccc32)CC1 (stereo unspecified),–,"inconclusive: 20.6 µM [cytotoxic, single point]"

Structure (SMILES),"activity change, negative = cytotoxic",Potency
O=c1[nH]c2ccccc2n1C1CCN(C(c2ccccc2OC(F)(F)F)c2nnnn2Cc2ccccc2)CC1 (stereo unspecified),–,"inconclusive: 29.1 µM [cytotoxic, single point]"
Cc1ccccc1NC(=O)CCl,–,active: 20.6 µM
COc1cc2c(c(OC)c1OC)-c1ccc(O)c(=O)cc1[C@@H](NC(C)=O)CC2,–,"inconclusive: 23.1 µM [cytotoxic, single point]"
COc1ccc(C(CC(=O)N2CCC3(CC2)OCCO3)NS(=O)(=O)c2ccc(C)cc2)cc1 (stereo unspecified),–,"inconclusive: 0.0046 µM [rising, full curve]"
CNCC(O)c1cc(F)c(OCc2ccccc2)c(OCc2ccccc2)c1F (stereo unspecified),–,"inconclusive: 20.6 µM [cytotoxic, single point]"
Cc1c2cnn(CC(=O)N3CCC4(CC3)OCCO4)c(=O)c2c(C)n1Cc1ccc(F)cc1,–,"inconclusive: 29.1 µM [cytotoxic, single point]"
CCCCNC(=O)c1c(N)n(Cc2ccc3c(c2)OCO3)c2nc3ccccc3nc12,inactive: -10.6%,–
Cc1ccc(C(=O)N[C@@H](C)CN2C3=NC[C@H](Cc4ccccc4)N3C[C@H]2Cc2ccc(O)cc2)cc1Br,–,"inconclusive: 29.1 µM [cytotoxic, single point]"
Cn1nc(-c2ccc(OCC(=O)N3CCN(Cc4ccccc4)CC3)cc2)c2ccccc2c1=O,–,"inconclusive: 20.6 µM [cytotoxic, partial curve, poor fit] and active: 5.8 µM"
CCCCCCn1c(=O)c(C(=O)Nc2cnccn2)c(O)c2ccccc21,–,active: 2.06 µM
O=C(NCCCN1CC1)Nc1cccc2ccccc12,–,"inconclusive: 18.4 µM [cytotoxic, single point]"
COC(=O)C1=C(c2cccc(OCc3ccccc3)c2)C[C@@H]2CC[C@H]1N2C(=O)NCCc1ccc(F)cc1,–,"inconclusive: 29.1 µM [cytotoxic, single point]"
O=c1c2ccccc2nc(CSc2ncnc3nc[nH]c23)n1-c1ccc(Cl)c(Cl)c1,inactive: 12.2%,–
CCc1cc2c(s1)N(CC(=O)OC)C(=O)CN=C2c1ccccc1OC,inconclusive: 34.4%,–
Cc1cccc(NP(C)(=O)c2nc3c(s2)CCCC3)c1 (stereo unspecified),inactive: 0.709%,–
CCC(=Nc1ccc(OC)cc1OC)c1c(O)n(C)c(=O)n(C)c1=O,–,"inconclusive: 15.8 µM [cytotoxic, partial curve, poor fit]"
CCc1ccc(N2C(=O)NC(=O)/C(=C\c3cccn3CCOc3ccc(C(C)C)cc3)C2=O)cc1,–,"inconclusive: 20.6 µM [cytotoxic, partial curve, poor fit]"
CCOC(=O)[C@]12Cc3cc(C)ccc3[C@H]1N(Cc1ccccc1)C(=O)c1cc(OC)ccc12,–,active: 18.4 µM
COC(=O)C1=C(c2ccc(F)cc2OCc2ccccc2)C[C@@H]2CC[C@H]1N2C(=O)NCc1cc(C)oc1C(F)(F)F,–,"inconclusive: 20.6 µM [cytotoxic, single point]"
CN(C)c1ccc(CCN2CCOCC2)cc1,inactive: -3.01%,–
CCOC(=O)[C@]12Cc3c(cc(OC)c(OC)c3OC)[C@H]1N(C(C)C)C(=O)c1cc(OC)ccc12,–,active: 4.11 µM
COc1cccc(NP(=O)(Oc2ccccc2)Oc2ccccc2)c1,–,active: 5.8 µM

# — PubChem BioAssay AID1347075 (National Center for Advancing Translational Sciences (NCATS), 2019)
